The subject of the test is C57BL/6 mice, intracerebral ependymoblastoma, median survival T/C. The test is described as follows: NCI In Vivo Anticancer Drug Screen. Data for tumor model Ependymoblastoma (intracerebral) in C57BL/6 mice. To be noted: T/C endpoint: median survival time, higher T/C = longer survival. How it is done: The antitumor activity of compounds was measured in mice bearing transplantable tumors. Survival or tumor size were measured and the results are expressed as the measurement made in the treated group (T) divided by the measurement made in the vehicle treated control group (C). The tumor model used in this assay is Ependymoblastoma (intracerebral) in C57BL/6 mice

Where [1] appears, read: dose: 64.0 mg/kg/injection, schedule: Q01DX001 (ip), vehicle: saline.
Where [2] appears, read: dose: 128.0 mg/kg/injection, schedule: Q01DX001 (ip), vehicle: saline.
[3] abbreviates: dose: 128.0 mg/kg/injection, schedule: Q01DX005 (ip), vehicle: saline.

Each structure is given as a SMILES string. The list shows only some results of the screen, not a fair sample: it is rich in T/C values a quarter to a half above the control, in often repeated tests (any T/C) and in doses without a T/C. Further doses and runs are listed elsewhere. T/C is the treated group as % of the vehicle group. Some doses have a count of surviving animals in place of a T/C: the source files T/C as zero there, which appears to mark a toxic dose or a test without result, not a measured value. Some survivor counts are full or nearly so, which does not show that the dose was tolerated: survival well below the control is almost never listed, so the zero probably covers shortened survival too. Counts of survivors are from the toxicity check (mostly the fifth day) where no day follows; animals may have died later. Schedules are NCI's codes, read here as Q, the interval in days (D) or hours (H), X, the number of doses. Some doses were run more than once; the results are listed from low to high. Some schedules carry Z or #; the key to these is not given. For survival time, the PubChem record calls one and a half times the control and up active, and a quarter to a half above the control has no call in these data; cut-offs in other NCI protocols can differ. Some T/C values are followed by the survivors on the day toxicity was checked, most often the fifth; without a count, all were alive then. Brackets with × count equal records among those shown.

With `COc1cccc2c1C(=O)c1c(O)c3c(c(O)c1C2=O)C[C@@](O)(C(=O)CO)C[C@@H]3OC1CC(N)C(O)C(C)O1` (some centres not stated), the survivor count (dose: 0.5 mg/kg/injection, schedule: Q07DX003 (ip), vehicle: saline) is 10 of 10; the survivor count (dose: 2.0 mg/kg/injection, schedule: Q01DX005 (oral), vehicle: saline) is listed as 6 of 10; the survivor count (dose: 4.0 mg/kg/injection, schedule: Q07DX003 (ip), vehicle: saline) is 10 of 10; the survivor count (dose: 4.0 mg/kg/injection, schedule: Q## X006 (ip), vehicle: saline) is reported as 9 of 10; the survivor count (dose: 8.0 mg/kg/injection, schedule: Q07DX003 (ip), vehicle: saline) is given as 4 of 10; the survivor count (dose: 8.0 mg/kg/injection, schedule: Q## X006 (ip), vehicle: saline) is recorded as 5 of 10. Besides, the survivor count by setting is: (dose: 16.0 mg/kg/injection, schedule: Q01DX001 (ip), vehicle: saline) 4 of 10; (dose: 16.0 mg/kg/injection, schedule: Q07DX003 (ip), vehicle: saline) 8 of 10; (dose: 32.0 mg/kg/injection, schedule: Q01DX001 (ip), vehicle: saline) 1 of 10; under setting [1], 2 of 10; under setting [2], 0 of 10. Besides, the T/C was 127 % of control (dose: 1.0 mg/kg/injection, schedule: Q01DX009 (ip), vehicle: saline); 96 [5 of 10 alive], 100, 109 [8 of 10 alive], 111 % of control (dose: 4.0 mg/kg/injection, schedule: Q01DX001 (ip), vehicle: saline); 100, 101, 101 [6 of 10 alive], 102 % of control [7 of 10 alive] (dose: 8.0 mg/kg/injection, schedule: Q01DX001 (ip), vehicle: saline).

For `COc1cc2cc3c4cc(OC)c(OC)cc4cc[n+]3c(C)c2cc1OC` (tested in a mixture with another compound), the T/C reads like this: (dose: 16.0 mg/kg/injection, schedule: Q01DX005 (ip), vehicle: saline) 86, 96, 101 [9 of 10 alive], 102, 103, 112 % of control; (dose: 32.0 mg/kg/injection, schedule: Q01DX005 (ip), vehicle: Klucel (hydroxypropylcellulose) (HPC)) 133 % of control; (dose: 32.0 mg/kg/injection, schedule: Q01DX005 (ip), vehicle: saline) 95, 98, 103, 108, 116 % of control (2×); under setting [1], 91, 96 [9 of 10 alive], 100, 101 % of control [7 of 10 alive]; (dose: 64.0 mg/kg/injection, schedule: Q01DX005 (ip), vehicle: saline) 100, 104, 107, 109, 111, 119 % of control; (dose: 64.0 mg/kg/injection, schedule: Q#A X002 (ip), vehicle: saline) 132 % of control [9 of 10 alive]. The T/C is, setting by setting: under setting [2], 93, 94 [6 of 10 alive], 105 % of control [9 of 10 alive]; under setting [3], 103 % of control [9 of 10 alive]. Also, the survivor count reads like this: under setting [2], 8 of 10; under setting [3], 8 of 10, 9 of 10, 10 of 10; (dose: 256.0 mg/kg/injection, schedule: Q01DX001 (ip), vehicle: saline) 8 of 10 and 10 of 10; (dose: 256.0 mg/kg/injection, schedule: Q01DX005 (ip), vehicle: Klucel (hydroxypropylcellulose) (HPC)) 8 of 10; (dose: 256.0 mg/kg/injection, schedule: Q01DX005 (ip), vehicle: saline) 0 of 10, 2 of 10, 3 of 10; (dose: 512.0 mg/kg/injection, schedule: Q01DX001 (ip), vehicle: saline) 1 of 10 and 2 of 10. Also, the survivor count (dose: 512.0 mg/kg/injection, schedule: Q01DX005 (ip), vehicle: Klucel (hydroxypropylcellulose) (HPC)) was 0 of 10 and 6 of 10; the survivor count (dose: 512.0 mg/kg/injection, schedule: Q#A X002 (ip), vehicle: saline) was 2 of 10; the survivor count (dose: 1024.0 mg/kg/injection, schedule: Q01DX001 (ip), vehicle: saline) is 0 of 10 and 1 of 10.

As for `O=C(N/N=C\c1cc(Br)cc(Br)c1O)N/N=C/c1cc(Br)cc(Br)c1O`, the survivor count (dose: 512.0 mg/kg/injection, schedule: Q01DX005 (ip), vehicle: saline with Tween-80) was 6 of 10.

`CC(=O)[C@]1(O)Cc2c(O)c3c(c(O)c2[C@@H](OC2CC(N)C(O)C(C)O2)C1)C(=O)c1c(O)cccc1C3=O` (some centres not stated): the survivor count is, setting by setting: (dose: 250.0 micrograms/kg/injection, schedule: Q01DX005 (ip), vehicle: suspension in saline) 7 of 10; (dose: 500.0 micrograms/kg/injection, schedule: Q01DX005 (ip), vehicle: suspension in saline) 0 of 10.

Turning to `Nc1ncnc2c1ncn2C1OC(COP(=O)(O)O)C(O)C1O` (configuration not stated), for the setting “dose: 400.0 mg/kg/injection, schedule: Q01DX005 (ip), vehicle: saline”, the survivor count is listed as 7 of 10. Also, the T/C (dose: 1600.0 mg/kg/injection, schedule: Q01DX005 (ip), vehicle: saline) was 126 % of control [7 of 10 alive].

`COC(=O)[C@@]12OC[C@]34[C@H]([C@@H](O)[C@@H]1O)[C@@]1(C)CC(=O)C(O)=C(C)[C@@H]1C[C@H]3OC(=O)[C@H](OC(=O)/C=C(\C)C(C)C)[C@@H]24`: the survivor count was 7 of 10 (dose: 1.0 mg/kg/injection, schedule: Q01DX005 (ip), vehicle: Klucel (hydroxypropylcellulose) (HPC)); 0 of 10 and 5 of 10 (dose: 2.0 mg/kg/injection, schedule: Q01DX005 (ip), vehicle: Klucel (hydroxypropylcellulose) (HPC)); 7 of 10 (dose: 2000.0 micrograms/kg/injection, schedule: Q01DX005 (ip), vehicle: saline + alcohol).

Take `NNC(=O)c1ccncc1`: the survivor count (dose: 230.0 mg/kg/injection, schedule: Q01DX005 (ip), vehicle: saline) was 3 of 10 and the survivor count (dose: 460.0 mg/kg/injection, schedule: Q01DX005 (ip), vehicle: saline) is on record as 0 of 10.

With `COc1cc2c3c(c1)-c1c(ccc(OC)c1OC)CC3N(CCN(CCCl)CCCl)CC2` (configuration not stated), the survivor count (dose: 16.0 mg/kg/injection, schedule: Q01DX005 (ip), vehicle: saline with Tween-80) is recorded as 3 of 6; the survivor count (dose: 32.0 mg/kg/injection, schedule: Q01DX005 (ip), vehicle: saline with Tween-80) is 1 of 6; the survivor count (dose: 64.0 mg/kg/injection, schedule: Q01DX005 (ip), vehicle: saline with Tween-80) was 1 of 6 and 4 of 6.

With `COc1cc(C[C@H]2c3cc(OC)c(OC)cc3CCN2C)c(Oc2cc3c(cc2OC)-c2c(OC)c(OC)cc4c2[C@H](C3)N(C)CC4)cc1OC`, the survivor count (dose: 200.0 mg/kg/injection, schedule: Q01DX005 (ip), vehicle: saline with Tween-80) was 9 of 10.

With `C1CN1c1nc(N2CC2)nc(N2CC2)n1`, the T/C (dose: 0.5 mg/kg/injection, schedule: Q01DX005 (ip), vehicle: saline) was 139 % of control. The survivor count by setting is: (dose: 1.0 mg/kg/injection, schedule: Q01DX005 (ip), vehicle: saline) 9 of 10; (dose: 2.0 mg/kg/injection, schedule: Q01DX005 (ip), vehicle: saline) 8 of 10.

For `CNc1nc(N(C)C)nc(N(C)C)n1`, the survivor count is, setting by setting: (dose: 12.5 mg/kg/injection, schedule: Q01DX005 (ip), vehicle: saline) 6 of 10; (dose: 25.0 mg/kg/injection, schedule: Q01DX005 (ip), vehicle: saline) 8 of 10; (dose: 50.0 mg/kg/injection, schedule: Q01DX005 (ip), vehicle: saline) 9 of 10; (dose: 200.0 mg/kg/injection, schedule: Q01DX005 (ip), vehicle: saline) 7 of 10.

Take `O=c1c(O)c(-c2ccc(O)c(O)c2)oc2cc(O)cc(O)c12`: the survivor count by setting is: (dose: 200.0 mg/kg/injection, schedule: Q01DX005 (ip), vehicle: Klucel (hydroxypropylcellulose) (HPC)) 9 of 10; (dose: 400.0 mg/kg/injection, schedule: Q01DX005 (ip), vehicle: Klucel (hydroxypropylcellulose) (HPC)) 7 of 10; (dose: 400.0 mg/kg/injection, schedule: Q01DX005 (ip), vehicle: other) 7 of 10; (dose: 800.0 mg/kg/injection, schedule: Q01DX005 (ip), vehicle: Klucel (hydroxypropylcellulose) (HPC)) 6 of 10; (dose: 800.0 mg/kg/injection, schedule: Q01DX005 (ip), vehicle: other) 0 of 10.
